This is one part of the list. These are further read-outs of the screen, such as a control signal, another cell line or another target. No call is given for them. Compounds called inactive in the main read-out are mostly missing here. Words in brackets tell the shape of the fitted curve; partial curves, single points and poor fits give uncertain potencies.
Assay: qHTS Assay for Lipid Storage Modulators in Drosophila S3 Cells;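 as to cell number change: cells counted by Cell Tracker Red CMTPX staining in the red channel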
Settings: BODIPY lipid droplet fluorescence, 18-24 h; for cell number change: measured here: cell count max response, cells fed with added oleic acid
How it was run: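 Drosophila S3 cells got compounds at several concentrations plus oleic acid (400 uM solution). Laser-scanning cytometry with 488 nm excitation read lipid droplets at 500-530 nm and cells at 575-640 nm. Percent activity was relative to 20 uM Triacsin C.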

[1] = measured here: cell number channel AC50, cells fed with added oleic acid
[2] = measured here: lipid fluorescence (Fed channel) AC50, cells fed with added oleic acid

Row | SMILES | cell number change [%] | AC50 [1] | AC50 [2]
1 | CN(C)CCN(C(=O)CCS(=O)(=O)c1ccccc1)c1nc2c(F)cccc2s1 | 31.6 | 7.31 µM [rising, partial curve, poor fit] | 7.31 µM [rising, partial curve]
2 | CCCN1CCN(C(=O)C2CCN(S(=O)(=O)c3ccc4c(c3)oc(=O)n4C)CC2)CC1 | – | – | 6.51 µM [rising, single point]
3 | O=C(CCN1C(=O)c2ccncc2C1=O)Nc1ccc(F)cc1 | -45.2 | 0.0092 µM [falling, full curve] | 18.4 µM [falling, partial curve, poor fit]
4 | OC(C#CCN1CCCCCC1)(c1ccccc1)c1cccnc1 (configuration not stated) | 25.4 | – | 0.82 µM [rising, full curve, poor fit]
5 | Cc1ccc(NC(=O)CN2C(=O)NC3(CCc4ccccc43)C2=O)cc1 (configuration not stated) | – | 5.8 µM [rising, single point] | 0.58 µM [rising, single point]
6 | CCCOc1ccc(N/C=C/C(=O)c2ccc(OC)c(OC)c2)cc1 | -10.9 | – | 0.517 µM [rising, partial curve, poor fit]
7 | Oc1ccc(-c2nc3ccccn3c2NCc2ccc3c(c2)OCO3)cc1 | -26 | – | 0.92 µM [rising, full curve]
8 | O=C1CC(c2ccccc2F)c2c(c3ccccc3[nH]c2=O)O1 (configuration not stated) | -23.9 | – | 29.1 µM [falling, single point]
9 | COc1ccc(NC(C)=O)cc1NC(C)c1nc2sc(C)c(C)c2c(=O)[nH]1 (configuration not stated) | -42.3 | 8.2 µM [falling, single point] | 1.84 µM [falling, partial curve]
10 | CC(C)(C)c1ccc(S(=O)(=O)NCC(=O)N2CCN(Cc3ccccc3)CC2)cc1 | -37.6 | 14.6 µM [falling, single point] | –
11 | CNS(=O)(=O)c1ccc(NC(=O)c2csc(C)c2)cc1 | -18.9 | – | –
12 | COc1cc(NC(=S)NCCc2ccccc2)c(OC)cc1NC(=O)C(C)C | 15.7 | – | 0.259 µM [rising, full curve, poor fit]
13 | S=C(NC1CC2CCC1C2)N1CCN(c2cccc(Cl)c2)CC1 (configuration not stated) | 9.02 | – | –
14 | CCOc1ccc(N2C(=O)Nc3ccccc3C2(O)C(=O)NCc2ccc(F)cc2)cc1 (configuration not stated) | -10.5 | – | –
15 | Cc1ccc(OC(C)C(=O)Nc2cc(C)on2)cc1 (configuration not stated) | 26.5 | – | 4.61 µM [falling, single point]
16 | Cc1cc(OCCCC(=O)Nc2nnc(C3CC3)s2)ccc1Cl | -30.6 | 16.4 µM [falling, single point] | 0.146 µM [rising, full curve, poor fit]

Part of the list above, as tab-separated lines:
Row	SMILES	cell number change [%]	AC50 [1]	AC50 [2]
2	CCCN1CCN(C(=O)C2CCN(S(=O)(=O)c3ccc4c(c3)oc(=O)n4C)CC2)CC1	–	–	6.51 µM [rising, single point]
6	CCCOc1ccc(N/C=C/C(=O)c2ccc(OC)c(OC)c2)cc1	-10.9	–	0.517 µM [rising, partial curve, poor fit]

Source: PubChem BioAssay AID2685 (National Center for Advancing Translational Sciences (NCATS), 2010)
